# Assay results reported in PubChem BioAssay AID256 (DTP/NCI, 2004).
# The list is a part of this screen's results and no random one: it covers a few groups of compounds. Other doses and runs of a compound may be missing. T/C is the treated group as % of the vehicle group. Some doses have a count of surviving animals in place of a T/C: the source files T/C as zero there, which appears to mark a toxic dose or a test without result, not a measured value. Some doses without a T/C left all or most animals alive at the check, yet need not have been tolerated: survival well below the control is almost never listed, so the zero probably covers shortened survival too. Counts of survivors are from the toxicity check (mostly the fifth day) where no day follows; animals may have died later. Schedules are NCI's codes, read here as Q, the interval in days (D) or hours (H), X, the number of doses. For survival time, this PubChem deposit counts one and a half times the control or more as active, and values a quarter to a half above the control carry no call in these data; other NCI protocols may use other cut-offs. Some entries show no survivor count and are marked so; the dose need not have been tolerated. Some T/C values are followed by the survivors on the day toxicity was checked, most often the fifth; where neither a count nor a note follows, no animal had died by that day.
# Tested on: CD2F1 mice, L1210 leukemia ip, survival T/C
# Test: NCI In Vivo Anticancer Drug Screen. Data for tumor model L1210 Leukemia (intraperitoneal) in CD2F1 (CDF1) mice
# Settings: T/C endpoint: mean survival time, higher T/C = longer survival
# Outline: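 Implant tumor; dose compound or vehicle; measure endpoint in both groups; report treated divided by control.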
# [1] = dose: 25.0 mg/kg/injection, schedule: Q01DX001 (ip), vehicle: DMSO
# [2] = dose: 50.0 mg/kg/injection, schedule: Q01DX001 (ip), vehicle: DMSO
# [3] = dose: 100.0 mg/kg/injection, schedule: Q01DX001 (ip), vehicle: DMSO
# [4] = dose: 200.0 mg/kg/injection, schedule: Q01DX001 (ip), vehicle: DMSO
# [5] = dose: 400.0 mg/kg/injection, schedule: Q01DX001 (ip), vehicle: DMSO
# [6] = dose: 100.0 mg/kg/injection, schedule: Q01DX009 (ip), vehicle: saline with Tween-80
# [7] = dose: 100.0 mg/kg/injection, schedule: Q04DX003 (ip), vehicle: saline with Tween-80
# [8] = dose: 200.0 mg/kg/injection, schedule: Q04DX003 (ip), vehicle: saline with Tween-80
# [9] = dose: 400.0 mg/kg/injection, schedule: Q04DX003 (ip), vehicle: saline with Tween-80
# [10] = dose: 100.0 mg/kg/injection, schedule: Q04DX003 (ip), vehicle: saline
# [11] = dose: 100.0 mg/kg/injection, schedule: Q04DX002 (ip), vehicle: saline with Tween-80
# [12] = dose: 200.0 mg/kg/injection, schedule: Q04DX002 (ip), vehicle: saline with Tween-80
# [13] = dose: 400.0 mg/kg/injection, schedule: Q04DX002 (ip), vehicle: saline with Tween-80
compound,measurement,setting,value
Oc1ccc(N(CCCl)CCCl)cc1,T/C,"dose: 0.5 mg/kg/injection, schedule: Q01DX009 (ip), vehicle: Klucel (hydroxypropylcellulose) (HPC)",100 % of control
same,T/C,"dose: 1.0 mg/kg/injection, schedule: Q01DX009 (ip), vehicle: Klucel (hydroxypropylcellulose) (HPC)",105 % of control
same,T/C,"dose: 2.0 mg/kg/injection, schedule: Q01DX009 (ip), vehicle: Klucel (hydroxypropylcellulose) (HPC)",111 % of control
same,T/C,"dose: 4.0 mg/kg/injection, schedule: Q01DX009 (ip), vehicle: Klucel (hydroxypropylcellulose) (HPC)",111 % of control
same,T/C,"dose: 8.0 mg/kg/injection, schedule: Q01DX009 (ip), vehicle: Klucel (hydroxypropylcellulose) (HPC)",117 % of control
same,T/C,"dose: 16.0 mg/kg/injection, schedule: Q01DX009 (ip), vehicle: Klucel (hydroxypropylcellulose) (HPC)",86 % of control
C[C@@H]1CCO[P@@](=O)(N(CCCl)CCCl)N1,T/C,[1],107 % of control
same,T/C,[2],119 % of control
same,T/C,[3],147 % of control
same,survivor count,[4],6 of 6
same,survivor count,[5],2 of 6
Cc1ccc([N+](=O)[O-])cc1NC(=O)NNc1ccc([N+](=O)[O-])cc1[N+](=O)[O-],survivor count,[6],6 of 6
same,T/C,"dose: 200.0 mg/kg/injection, schedule: Q01DX009 (ip), vehicle: saline with Tween-80",91 % of control
same,T/C,"dose: 400.0 mg/kg/injection, schedule: Q01DX009 (ip), vehicle: saline with Tween-80",94 % of control [5 of 6 alive]
CN(C)P(=O)(OCCC=O)N(CCCl)CCCl (stereo unspecified),T/C,[1],100 % of control
same,T/C,[2],112 % of control
same,T/C,[3],110 % of control
same,T/C,[4],141 % of control
same,T/C,"dose: 266.0 mg/kg/injection, schedule: Q01DX001 (ip), vehicle: DMSO",109 % of control
same,T/C,"dose: 400.0 mg/kg/injection, schedule: Q01DX001 (ip), vehicle: DMSO, evaluated on day 25",109 % of control
same,T/C,"dose: 400.0 mg/kg/injection, schedule: Q01DX001 (ip), vehicle: DMSO, evaluated on day 60",165 % of control
same,T/C,"dose: 600.0 mg/kg/injection, schedule: Q01DX001 (ip), vehicle: DMSO",111 % of control
same,T/C,"dose: 900.0 mg/kg/injection, schedule: Q01DX001 (ip), vehicle: DMSO",122 % of control [4 of 6 alive]
Cc1ccc(Nc2c([N+](=O)[O-])cc([N+](=O)[O-])cc2[N+](=O)[O-])c(C)c1,T/C,[7],103 % of control [survivor count not shown]
same,T/C,[8],97 % of control [survivor count not shown]
same,T/C,[9],103 % of control [survivor count not shown]
CC(C)CO[P+](=O)OCC(C)C,T/C,"dose: 50.0 mg/kg/injection, schedule: Q04DX003 (ip), vehicle: saline with Tween-80",94 % of control
same,T/C,[7],101 % of control
same,T/C,[8],101 % of control
CC(=O)SCC(Cl)Cl,T/C,"dose: 25.0 mg/kg/injection, schedule: Q01DX009 (ip), vehicle: saline with Tween-80",94 % of control
same,T/C,"dose: 25.0 mg/kg/injection, schedule: Q04DX003 (ip), vehicle: saline",92 % of control
same,T/C,"dose: 50.0 mg/kg/injection, schedule: Q01DX009 (ip), vehicle: saline with Tween-80",94 % of control
same,T/C,"dose: 50.0 mg/kg/injection, schedule: Q04DX003 (ip), vehicle: saline",100 % of control
same,T/C,[6],96 % of control
same,T/C,[7],97 % of control
same,T/C,[10],92 % of control
same,survivor count,[8],6 of 6
same,survivor count,[9],0 of 6
CCCCCc1ccccn1.O=[N+]([O-])c1cc([N+](=O)[O-])c(O)c([N+](=O)[O-])c1,T/C,"dose: 50.0 mg/kg/injection, schedule: Q04DX002 (ip), vehicle: saline with Tween-80",100 % of control [survivor count not shown]
same,T/C,[11],96 % of control [survivor count not shown]
same,T/C,[12],100 % of control [survivor count not shown]
NC1CCCCC1.O=P(O)(NO)N(CCCl)CCCl,T/C,"dose: 25.0 mg/kg/injection, schedule: Q01DX001 (ip), vehicle: water",100 % of control
same,T/C,"dose: 50.0 mg/kg/injection, schedule: Q01DX001 (ip), vehicle: water",106 % of control
same,T/C,"dose: 100.0 mg/kg/injection, schedule: Q01DX001 (ip), vehicle: water",124 % of control
same,T/C,"dose: 200.0 mg/kg/injection, schedule: Q01DX001 (ip), vehicle: water",137 % of control
same,T/C,"dose: 400.0 mg/kg/injection, schedule: Q01DX001 (ip), vehicle: water",149 % of control
F[P-](F)(F)(F)(F)F.c1ccc([C+](c2ccccc2)c2ccccc2)cc1,T/C,[11],103 % of control
same,T/C,[12],92 % of control
same,T/C,[13],107 % of control
Cc1ccc(Nc2c([N+](=O)[O-])cc([N+](=O)[O-])cc2[N+](=O)[O-])cc1C,T/C,[7],88 % of control
same,T/C,[8],89 % of control
same,T/C,[9],89 % of control
O=CCCOP(=O)(N(CCCl)CCCl)N1CC1 (stereo unspecified),T/C,"dose: 25.0 mg/kg/injection, schedule: Q01DX001 (ip), vehicle: DMSO, evaluated on day 35",103 % of control
same,T/C,"dose: 25.0 mg/kg/injection, schedule: Q01DX001 (ip), vehicle: DMSO, evaluated on day 45",127 % of control
same,T/C,"dose: 50.0 mg/kg/injection, schedule: Q01DX001 (ip), vehicle: DMSO, evaluated on day 35",105 % of control
same,T/C,"dose: 50.0 mg/kg/injection, schedule: Q01DX001 (ip), vehicle: DMSO, evaluated on day 45",143 % of control
same,T/C,"dose: 100.0 mg/kg/injection, schedule: Q01DX001 (ip), vehicle: DMSO, evaluated on day 35",114 % of control
same,T/C,"dose: 100.0 mg/kg/injection, schedule: Q01DX001 (ip), vehicle: DMSO, evaluated on day 45",138 % of control
same,T/C,"dose: 200.0 mg/kg/injection, schedule: Q01DX001 (ip), vehicle: DMSO, evaluated on day 35",128 % of control
same,T/C,"dose: 200.0 mg/kg/injection, schedule: Q01DX001 (ip), vehicle: DMSO, evaluated on day 45",168 % of control
same,T/C,[5],140 % of control
same,survivor count,[5],2 of 6
COP1OCCO1,T/C,"dose: 75.0 mg/kg/injection, schedule: Q01DX009 (ip), vehicle: saline",101 % of control [5 of 6 alive]
same,T/C,"dose: 150.0 mg/kg/injection, schedule: Q01DX009 (ip), vehicle: saline",96 % of control
same,survivor count,"dose: 300.0 mg/kg/injection, schedule: Q01DX009 (ip), vehicle: saline",2 of 6
CC(C)NCCN(C(=N)C(=N)N(CCNC(C)C)C(C)C)C(C)C.O=[N+]([O-])c1cc([N+](=O)[O-])c(O)c([N+](=O)[O-])c1,T/C,[11],93 % of control
same,T/C,[12],89 % of control
same,survivor count,[13],1 of 3
N/C(=N\[N+](=O)[O-])N(CCCl)N=O,T/C,[10],104 % of control
same,T/C,"dose: 200.0 mg/kg/injection, schedule: Q04DX003 (ip), vehicle: saline",104 % of control
same,T/C,"dose: 400.0 mg/kg/injection, schedule: Q04DX003 (ip), vehicle: saline",104 % of control
NP(=O)(OCCCO)N(CCCl)CCCl (stereo unspecified),T/C,"dose: 12.5 mg/kg/injection, schedule: Q01DX005 (ip), vehicle: water",91 % of control
same,T/C,[1],95 % of control
same,T/C,"dose: 25.0 mg/kg/injection, schedule: Q01DX005 (ip), vehicle: water",95 % of control
same,T/C,[2],100 % of control
same,T/C,"dose: 50.0 mg/kg/injection, schedule: Q01DX005 (ip), vehicle: water",97 % of control
same,T/C,[3],93 % of control
same,T/C,"dose: 100.0 mg/kg/injection, schedule: Q01DX005 (ip), vehicle: water",95 % of control
same,T/C,[4],97 % of control
same,T/C,"dose: 200.0 mg/kg/injection, schedule: Q01DX005 (ip), vehicle: water",100 % of control
same,T/C,[5],102 % of control
